This note sets out measurements from paper PMC11312113 (2024).

Some peptides are written in HELM: one residue between dots, names in brackets for other building blocks, links after the first $.

This series can be described thus: general procedure: Fmoc solid-phase peptide synthesis; 2-chlorotrityl chloride resin; HATU/DIPEA; PyBOP/DIPEA for DOTA-tris(tBu) ester. The conditions noted are these: whole synthesis.

Substance “PEPTIDE1{[DOTA].[Ahx].V.S.G.W.R.L.F.K.K.I.S}$$$$V2.0” had an isolated yield of 16.8%.
